PubChem BioAssay AID1259276 – Sanger Institute, 2017
The deposit covers 794 reagents; below is a random part of them. Of all reagents, 24 (3%) are marked active. 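Calls come only from the siRNA-alone arm; drug synergy scores do not affect them.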 No viability above 1 is reported: the scale is capped. Not stated in the record: the amount of reagent, the time to read-out.

Screen: 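Kinase knock-downs that reduce colorectal cancer cell viability alone or with anchor drugs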 (primary screen)
Cells: human C2BBe1 colorectal cancer cells
Knock-down reagent: siRNA pool against human genes
Conditions: DMSO vehicle, or one anchor drug: BYL719 at 1 µM, cetuximab at 5 µg/ml, or trametinib at 10 nM; exposure length not stated
Measurement: 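Cell viability as a fraction of non-targeting control wells, mean of replicates, also as a control-based robust z-score, plus a synergy score for each anchor drug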
Direction: viability robust z-score, siRNA alone and viability vs control, siRNA alone: higher = more viable cells after knock-down; synergy score with BYL719: higher = stronger combined killing with BYL719; synergy score with cetuximab: higher = stronger combined killing with cetuximab; synergy score with trametinib: higher = stronger combined killing with trametinib
Hit rule: 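Called essential when knock-down alone gives a viability robust z-score below -3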
Meaning of the calls: active = essential (siRNA alone); inactive = no change (siRNA alone)

| gene knocked down | viability robust z-score, siRNA alone | viability vs control, siRNA alone | synergy score with BYL719 | synergy score with cetuximab | synergy score with trametinib | activity call |
| --- | --- | --- | --- | --- | --- | --- |
| PI4KB (phosphatidylinositol 4-kinase beta) | 0.472 | 1 | -0.136 | -0.0115 | 0.0275 | inactive |
| MPP1 (MAGUK p55 scaffold protein 1) | 0.472 | 1 | -0.142 | -0.0115 | 0.0481 | inactive |
| PHKG2 (phosphorylase kinase catalytic subunit gamma 2) | 0.472 | 1 | -0.0893 | -0.0115 | -0.0667 | inactive |
| PRPS1 (phosphoribosyl pyrophosphate synthetase 1) | -2.04 | 0.841 | -0.131 | -0.0777 | -0.201 | inactive |
| PDGFRL (platelet derived growth factor receptor like) | 0.472 | 1 | -0.128 | -0.0115 | -0.0667 | inactive |
| PIK3CG | -1.78 | 0.858 | -0.264 | -0.152 | -0.193 | inactive |
| PRKCA (protein kinase C alpha) | -1.9 | 0.851 | -0.214 | 0.161 | -0.0444 | inactive |
| RPS6KB1 (ribosomal protein S6 kinase B1) | 0.472 | 1 | 0.0539 | 0.0104 | -0.0667 | inactive |
| NTRK3 (neurotrophic receptor tyrosine kinase 3) | 0.472 | 1 | -0.142 | -0.0115 | -0.0667 | inactive |
| N4BP2 (NEDD4 binding protein 2) | 0.472 | 1 | -0.059 | -0.0115 | -0.0667 | inactive |
| CAMKK2 (calcium/calmodulin dependent protein kinase kinase 2) | 0.472 | 1 | -0.0841 | -0.0115 | -0.0198 | inactive |
| RPS6KB2 (ribosomal protein S6 kinase B2) | 0.472 | 1 | 0.147 | -0.0115 | -0.0667 | inactive |
| MED12 (mediator complex subunit 12) | 0.472 | 1 | -0.0892 | -0.0115 | 0.0217 | inactive |
| GNE | -0.244 | 0.955 | -0.13 | -0.0561 | -0.0998 | inactive |
| RPS6KC1 (ribosomal protein S6 kinase C1) | 0.472 | 1 | -0.09 | -0.0115 | -0.0667 | inactive |
| BMPR1A (bone morphogenetic protein receptor type 1A) | -3.25 | 0.765 | -0.0947 | -0.243 | -0.286 | active |
| PRKCI (protein kinase C iota) | 0.472 | 1 | -0.00184 | -0.0115 | 0.0051 | inactive |

Copied from the entries so far for reference:
| gene knocked down | viability robust z-score, siRNA alone | viability vs control, siRNA alone | synergy score with BYL719 | synergy score with cetuximab | synergy score with trametinib | activity call |
| --- | --- | --- | --- | --- | --- | --- |
| GNE | -0.244 | 0.955 | -0.13 | -0.0561 | -0.0998 | inactive |
| RPS6KC1 (ribosomal protein S6 kinase C1) | 0.472 | 1 | -0.09 | -0.0115 | -0.0667 | inactive |

Continued.
| gene knocked down | viability robust z-score, siRNA alone | viability vs control, siRNA alone | synergy score with BYL719 | synergy score with cetuximab | synergy score with trametinib | activity call |
| --- | --- | --- | --- | --- | --- | --- |
| TAOK3 (TAO kinase 3) | 0.472 | 1 | 0.148 | -0.0115 | -0.0667 | inactive |
| DCLK2 (doublecortin like kinase 2) | 0.472 | 1 | -0.142 | 0.0436 | -0.0667 | inactive |
| NAGK (N-acetylglucosamine kinase) | 0.144 | 0.979 | -0.115 | -0.0319 | 0.0648 | inactive |
| PKM (pyruvate kinase M1/2) | 0.472 | 1 | -0.142 | 0.00609 | -0.0667 | inactive |
| TSSK2 (testis specific serine kinase 2) | 0.472 | 1 | -0.0177 | 0.108 | 0.142 | inactive |
| JAK1 (Janus kinase 1) | 0.472 | 1 | -0.0736 | -0.0115 | -0.0667 | inactive |
| AMER1 (APC membrane recruitment protein 1) | 0.472 | 1 | -0.142 | -0.0115 | -0.0667 | inactive |
| MAP3K11 (mitogen-activated protein kinase kinase kinase 11) | 0.472 | 1 | 0.0962 | 0.0661 | -0.0256 | inactive |
| DLG4 (discs large MAGUK scaffold protein 4) | 0.472 | 1 | 0.204 | 0.166 | 0.0684 | inactive |
| DDR2 (discoidin domain receptor tyrosine kinase 2) | -1.72 | 0.862 | -0.00107 | -0.148 | -0.065 | inactive |
| TRIO (trio Rho guanine nucleotide exchange factor) | -0.565 | 0.935 | -0.0693 | -0.0438 | -0.111 | inactive |
| TEK (TEK receptor tyrosine kinase) | -2.55 | 0.809 | -0.306 | -0.2 | -0.0867 | inactive |
| FRK (fyn related Src family tyrosine kinase) | -2.88 | 0.789 | -0.323 | -0.0949 | -0.264 | inactive |
| CKMT2 (creatine kinase, mitochondrial 2) | 0.472 | 1 | 0.105 | 0.266 | -0.0667 | inactive |
| DGKG (diacylglycerol kinase gamma) | 0.472 | 1 | 0.0192 | -0.0115 | -0.0667 | inactive |
| PIP5KL1 (phosphatidylinositol-4-phosphate 5-kinase like 1) | 0.472 | 1 | -0.142 | -0.0115 | -0.0667 | inactive |
| NRBP2 (nuclear receptor binding protein 2) | -1.1 | 0.901 | -0.0907 | -0.109 | -0.0526 | inactive |
